Source: article PMC3207863
No constants are given. Whether binding was seen depends on the method and setting. In cells and extracts the contact can be indirect. Some entries that bind do so weakly or less than the wild type. For part of these data: Tags and fused reporters may be left off the sequences shown.

Sequences of proteins named here, by UniProt entry; tags and fusion partners are left off.
UniProt O08788: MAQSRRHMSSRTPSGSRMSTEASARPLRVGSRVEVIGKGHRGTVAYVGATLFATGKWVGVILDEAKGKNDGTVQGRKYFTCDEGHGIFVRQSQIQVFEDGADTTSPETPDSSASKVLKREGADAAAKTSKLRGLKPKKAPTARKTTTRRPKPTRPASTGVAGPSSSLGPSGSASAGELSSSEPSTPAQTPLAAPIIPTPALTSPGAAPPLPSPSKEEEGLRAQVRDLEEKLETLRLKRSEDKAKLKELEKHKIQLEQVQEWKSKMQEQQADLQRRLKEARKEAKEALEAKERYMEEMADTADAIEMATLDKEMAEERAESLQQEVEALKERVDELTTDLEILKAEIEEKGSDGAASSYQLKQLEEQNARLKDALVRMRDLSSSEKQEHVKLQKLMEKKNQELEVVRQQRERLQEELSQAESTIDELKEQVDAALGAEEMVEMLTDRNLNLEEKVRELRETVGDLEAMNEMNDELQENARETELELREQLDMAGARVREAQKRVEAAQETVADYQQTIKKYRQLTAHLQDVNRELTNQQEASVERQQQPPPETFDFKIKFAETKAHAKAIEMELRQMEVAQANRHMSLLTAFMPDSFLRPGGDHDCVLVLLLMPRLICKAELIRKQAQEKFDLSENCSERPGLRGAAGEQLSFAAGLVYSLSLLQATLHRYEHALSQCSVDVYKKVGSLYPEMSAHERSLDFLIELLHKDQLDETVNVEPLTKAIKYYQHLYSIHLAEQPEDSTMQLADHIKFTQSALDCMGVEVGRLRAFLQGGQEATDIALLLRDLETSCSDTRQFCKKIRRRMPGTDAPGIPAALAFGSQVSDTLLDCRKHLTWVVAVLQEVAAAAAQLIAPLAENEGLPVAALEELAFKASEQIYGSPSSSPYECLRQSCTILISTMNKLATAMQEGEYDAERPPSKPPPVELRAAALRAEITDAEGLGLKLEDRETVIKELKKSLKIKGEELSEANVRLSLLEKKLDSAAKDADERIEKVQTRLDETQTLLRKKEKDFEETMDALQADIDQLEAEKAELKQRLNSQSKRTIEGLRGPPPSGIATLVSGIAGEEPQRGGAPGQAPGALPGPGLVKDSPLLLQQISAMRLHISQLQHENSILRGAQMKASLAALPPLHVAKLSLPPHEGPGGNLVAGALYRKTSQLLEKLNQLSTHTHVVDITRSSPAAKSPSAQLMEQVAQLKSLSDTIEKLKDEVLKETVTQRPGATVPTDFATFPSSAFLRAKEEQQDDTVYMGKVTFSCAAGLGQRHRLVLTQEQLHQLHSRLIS

T1: V5 tagged full length mouse LIS1 (mouse) (UniProt P63005)
T1 sequence: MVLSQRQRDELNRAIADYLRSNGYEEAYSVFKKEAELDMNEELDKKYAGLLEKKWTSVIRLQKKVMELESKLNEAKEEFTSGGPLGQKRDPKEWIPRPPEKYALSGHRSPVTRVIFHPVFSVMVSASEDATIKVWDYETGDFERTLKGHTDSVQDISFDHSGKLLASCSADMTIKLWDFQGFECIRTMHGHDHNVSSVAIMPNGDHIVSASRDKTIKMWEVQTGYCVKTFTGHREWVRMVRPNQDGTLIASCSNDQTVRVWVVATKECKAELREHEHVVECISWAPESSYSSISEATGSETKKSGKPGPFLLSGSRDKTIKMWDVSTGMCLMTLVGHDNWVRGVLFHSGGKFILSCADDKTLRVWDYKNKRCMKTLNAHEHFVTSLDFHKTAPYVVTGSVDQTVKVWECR

T2: GST fusion protein of the RUN domain of mouse Plekhm1 (mouse) (UniProt Q7TSI1)
T2 sequence: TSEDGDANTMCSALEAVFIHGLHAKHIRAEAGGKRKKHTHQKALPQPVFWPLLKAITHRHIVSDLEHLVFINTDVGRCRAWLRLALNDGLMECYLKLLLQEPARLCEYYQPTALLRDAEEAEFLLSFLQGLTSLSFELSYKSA


Key:
[1] = target: T1, V5 tagged full length mouse LIS1 (mouse); assay: co-IP; lysate of mature osteoclasts transduced with LIS1-V5 or empty vector, H-buffer; IP with anti-LIS1 polyclonal antibody, blots with anti-p150^glued, anti-DIC and anti-V5
[2] = target: HA tagged full length mouse Plekhm1 (mouse) (UniProt Q7TSI1); assay: co-IP; lysate of mature osteoclasts transduced with HA-Plekhm1 constructs, H-buffer (20 mM HEPES pH 7.4, 1% Triton X-100, 1 mM EDTA, 150 mM NaCl, 1 mM DTT); IP with anti-HA, blots with anti-LIS1, anti-DIC and anti-HA
[3] = target: T2, GST fusion protein of the RUN domain of mouse Plekhm1 (mouse); assay: pull-down; 2 µg GST fusion protein of single Plekhm1 domains on glutathione beads, 2 mg mature osteoclast lysate, 2 hours at 4°C, IP buffer (20 mM Hepes pH 7.4, 120 mM NaCl, 5% glycerol, 0.5 mM EDTA, 0.2% NP-40); immunoblot with anti-LIS1; only the target purified

binding [1]	binding [2]	binding [3]	Molecule
binds	–	–	p150^glued subunit of dynactin complex, endogenous (from UniProt O08788 1-1281)
–	binds	binds	LIS1 (PAFAH1b1, platelet-activating factor acetylhydrolase isoform 1b subunit 1), endogenous (protein, UniProt P63005 1-410) MVLSQRQRDELNRAIADYLRSNGYEEAYSVFKKEAELDMNEELDKKYAGLLEKKWTSVIRLQKKVMELESKLNEAKEEFTSGGPLGQKRDPKEWIPRPPEKYALSGHRSPVTRVIFHPVFSVMVSASEDATIKVWDYETGDFERTLKGHTDSVQDISFDHSGKLLASCSADMTIKLWDFQGFECIRTMHGHDHNVSSVAIMPNGDHIVSASRDKTIKMWEVQTGYCVKTFTGHREWVRMVRPNQDGTLIASCSNDQTVRVWVVATKECKAELREHEHVVECISWAPESSYSSISEATGSETKKSGKPGPFLLSGSRDKTIKMWDVSTGMCLMTLVGHDNWVRGVLFHSGGKFILSCADDKTLRVWDYKNKRCMKTLNAHEHFVTSLDFHKTAPYVVTGSVDQTVKVWECR
